The supplement of paper PMC5407854, “Inhibitor of ppGalNAc-T3-mediated O-glycosylation blocks cancer cell invasiveness and lowers FGF23 levels” (eLife, 2017)
The other results are listed elsewhere or left out. Small differences around the control level are noise.

Each molecule was assayed on ppGalNAc-T2 sensor (assay: T2 sensor activation Q score (MG/GFP ratio z-score vs DMSO controls) (SD units); higher = more sensor activation (inhibition of ppGalNAc-T2 glycosylation)). Conditions: HEK293 sensor cells; 10 µM; 6 h.
Method: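 Cells were treated with compound at 10 uM for 6 h, then MG/GFP ratio was read by flow cytometry (10,000 cells per well, duplicate wells). Q = (R - R_neg)/SD_neg relative to DMSO vehicle controls; the signal rises when the glycosyltransferase is inhibited.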

SMILES	T2 sensor activation Q score
CCN1CCN(Cc2ccc(OC)c(OC)c2OC)CC1	0.325
COc1ccccc1N1CCN(Cc2cccc([N+](=O)[O-])c2)CC1	-0.19
COc1ccc(CCNC2CCCC(C)C2)cc1 (centres undefined)	-0.22
Cc1ccccc1N1CCN(Cc2cccc([N+](=O)[O-])c2)CC1	0.215
CCc1ccc(CN2CCN(c3ccccc3OC)CC2)cc1	0.81
Cc1ccc(CN2CCN(c3ccccc3)CC2)c(C)c1	-0.175
COc1ccc(N2CCN(Cc3ccc(F)cc3)CC2)cc1	0.59
CC(=O)c1ccc(N2CCN(Cc3cccc(Cl)c3)CC2)cc1	1.37
O=[N+]([O-])c1ccc(N2CCN(Cc3c(F)cccc3F)CC2)cc1	-0.4
CCN1CCN(Cc2ccc(Cl)cc2)CC1	0.145
Fc1ccccc1N1CCN(Cc2ccc(Cl)cc2)CC1	0.925
O=[N+]([O-])c1ccccc1CN1CCN(c2cccc(Cl)c2)CC1	1.75
CCN1CCN(Cc2ccccc2C)CC1	1.12
COc1cc(CN2CCN(Cc3ccccc3)CC2)cc(OC)c1	-0.965
COc1ccc(N2CCN(Cc3ccc(Cl)cc3)CC2)cc1	0.44
COc1cc(C)c(CN2CCN(c3ccccc3)CC2)cc1C	-0.38
Cc1cccc(N2CCN(Cc3ccccc3[N+](=O)[O-])CC2)c1C	0.2
Fc1ccc(CN2CCN(Cc3ccccc3)CC2)cc1F	0.985
Cc1ccc(CN2CCN(C)CC2)cc1	-0.505
CCN1CCN(Cc2cc(F)ccc2F)CC1	0.48

Rewritten in markdown: entries from further up.

| SMILES | T2 sensor activation Q score |
| --- | --- |
| COc1ccc(N2CCN(Cc3ccc(Cl)cc3)CC2)cc1 | 0.44 |
| COc1cc(C)c(CN2CCN(c3ccccc3)CC2)cc1C | -0.38 |
| Cc1cccc(N2CCN(Cc3ccccc3[N+](=O)[O-])CC2)c1C | 0.2 |

Remaining list, next part.

SMILES	T2 sensor activation Q score
COc1ccc(CN2CCN(c3ccccc3C)CC2)c(OC)c1	-0.42
Fc1ccc(CN2CCN(c3ccccc3)CC2)c(F)c1	-0.635
Nc1cc(N2CCNCC2)ccc1[N+](=O)[O-]	-0.545
COc1ccccc1N1CCN(Cc2ccccc2F)CC1	-0.255
COc1ccc(N2CCN(Cc3cccc(Cl)c3Cl)CC2)cc1	0.87
Cc1ccccc1CN1CCN(c2ccccc2F)CC1	0.22
NCCc1nc(N)n[nH]1	0.185
CCc1ccc(C(=O)CCN(C)C)cc1	-0.695
COc1ccc(CN2CCN(C)CC2)c(OC)c1C	0.105
COc1ccc(N2CCN(Cc3ccc(OC)c(C)c3)CC2)cc1	-0.875
CN(C)c1ccc(CN2CCN(c3ccc(F)cc3)CC2)cc1	-0.805
Cc1cccc(CN2CCN(C)CC2)c1	0.545
Cc1ccccc1CN1C[C@@H]2C[C@@H](C1)c1cccc(=O)n1C2	0.19
CN(C)c1ccc(CN2CCN(c3ccccc3Cl)CC2)cc1	0.335
CCOc1ccc(CN2CCN(c3ccc(F)cc3)CC2)cc1	0.24
CCOc1ccccc1N1CCN(Cc2ccc(OC)cc2)CC1	0.41
Cc1cc(Br)c2[nH]cc(CCN)c2c1	-0.12
O=C(NC(=O)c1c(F)cccc1F)Nc1ccc(Cl)cc1	-0.875
CN1CCN(Cc2c(Cl)cccc2Cl)CC1	-0.655
